# Among all 300,000 compounds or so, about 3,700 (1.2%) were called active. Inconclusive means that the source gave no clear call. Such entries were picked first, then a sample of the others. The call rests on the fitted dose curve; tested in HEK293 cells. A potency beside an inconclusive call is a rough fit, not a confirmed value.
# Assay: qHTS for Inhibitors of binding or entry into cells for Lassa Virus; further: nearly all actives have a fitted effect of over 50% in size
# Conditions: Lassa virus pseudotype entry inhibition, cell reporter; activity change, negative = inhibition: at 37.9 µM (top of the series) unless noted
# On the % scale 0 is the no-effect control and ±100 the full control effect; potency means the concentration at half of the fitted maximal effect.
SMILES,Potency,"activity change, negative = inhibition"
CSCC[C@H](NC(=O)c1cccnc1)c1nnc2ccccn12,"inconclusive: 22.4 µM [activator, partial curve, poor fit]",
O=S(=O)(c1ccccc1)N1CCN=C1SCc1c(F)cccc1Cl,"inconclusive: 35.5 µM [inhibitor, single point]",
O=C1C2C3C=CC(CNS(=O)(=O)c4ccccc4)(O3)C2C(=O)N1c1ccc(Cl)cc1 (stereo not drawn),inactive,
O=C1CC(c2ccc(F)cc2)CC2=C1C(c1ccc([N+](=O)[O-])o1)Nc1ccccc1N2 (stereo not drawn),"inconclusive: 35.5 µM [inhibitor, single point]",
O=C(C1CC1)N1CCc2cc(Br)cc(S(=O)(=O)N3CCN(c4ccccc4)CC3)c21,"inconclusive: 8.91 µM [activator, partial curve, poor fit]",
COc1cc(/C=C/C(=O)c2ccc(O)cc2)ccc1OCC#N,active: 1.58 µM,
CCCCCCCCCCCCCCCC(O)C[N+](C)(C)CCO (stereo not drawn),inactive,
CCOc1ccc(NS(=O)(=O)c2cc(NC(=O)CCC(=O)c3cccs3)ccc2Cl)cc1,"inconclusive: 20 µM [inhibitor, single point]",
CCCNC(=O)OCC12CC3CC(CC(C3)C1)C2,"inconclusive: 3.16 µM [inhibitor, partial curve, poor fit]",
COc1cccc(-n2c(CN3CCN(c4ccc(C)cc4)C(C)C3)nc3ccc([N+](=O)[O-])cc3c2=O)c1 (stereo not drawn),"inconclusive: 1.78 µM [inhibitor, partial curve, poor fit]",
COc1ccc(CNn2c(-c3cccs3)nc3ccccc3c2=O)cc1OC,"inconclusive: 35.5 µM [inhibitor, single point]",
CCN(c1ccccc1)S(=O)(=O)c1ccc(F)c(C(=O)Nc2ccc(C)cc2)c1,"inconclusive: 3.16 µM [inhibitor, full curve]",
Cc1cccc(CC2S/C(=N/c3ccccn3)NC2=O)c1 (stereo not drawn),"inconclusive: 22.4 µM [inhibitor, single point]",
CCC(/C=C1\Sc2ccc(OC)cc2N1CCO)=C\c1sc2ccc(OC)cc2[n+]1CCO,"inconclusive: 11.2 µM [inhibitor, partial curve, poor fit]",
Cc1nnc(SCC(=O)Nc2nc3c(s2)CC(C)CC3)s1 (stereo not drawn),inactive,
COc1ccc(-c2cc(C(=O)Nc3ccccc3O)c3ccccc3n2)cc1,"inconclusive: 0.631 µM [inhibitor, full curve, poor fit]",
COc1ccc(CNCCSc2nnnn2-c2ccccc2)c(OC)c1,inactive,
Cc1cccc(-c2c(NC(=O)c3ccco3)oc3c(C)cccc3c2=O)c1,"inconclusive: 35.5 µM [inhibitor, single point]",
CC(C)(C)n1nnnc1C(c1cccc(C#N)c1)N1CCC(Cc2ccccc2)CC1 (stereo not drawn),"inconclusive: 18.3 µM [inhibitor, single point]",
Cc1cccc(C2=NCC(=O)N(CC(=O)NCc3ccco3)c3sc4c(c32)CCCC4)c1,"inconclusive: 8.2 µM [inhibitor, partial curve, poor fit]",
Cc1ccsc1/C=C1/SC(N2CC(C)OC(C)C2)=NC1=O (stereo not drawn),inactive,
Oc1ccc(Cl)cc1-c1cc(-c2ccccc2Cl)[nH]n1,inactive,
C=CCOc1ccc(C2C(C(=O)c3ccc(C)o3)=C(O)C(=O)N2Cc2cccnc2)cc1 (stereo not drawn),inactive,

SMILES,Potency,"activity change, negative = inhibition"
S=c1[nH]nc(C2CC2c2ccc(Cl)cc2)n1-c1ccc(Cl)cc1 (stereo not drawn),active: 15.8 µM,
CCOc1ccccc1OCC(=O)Nc1ccc(OC)c(S(=O)(=O)N2CCCCC2)c1,inactive,
COc1cc(NC(=O)c2cc(-c3ccc(Cl)c(Cl)c3)on2)cc(OC)c1OC,"inconclusive: 35.5 µM [inhibitor, single point]",
O=[N+]([O-])c1cc(Cl)cc(/C=N\Nc2ccccn2)c1O,"inconclusive: 5.01 µM [inhibitor, partial curve]",
COc1cccc(C(=O)NNC(=O)c2ccc(NS(=O)(=O)c3cccs3)cc2)c1OC,inactive,
CCN1CNC(=S)N(CCc2ccccc2)C1,"inconclusive: 0.891 µM [inhibitor, single point]",
O=C(CN1C(=O)c2ccccc2S1(=O)=O)c1ccccc1F,"inconclusive: 5.62 µM [inhibitor, full curve, poor fit]",
CCC(=O)N1CCc2cc(S(=O)(=O)NCCC(=O)Nc3ccccc3C)ccc21,,inconclusive: 18.7% [activator]
Cc1ccc(NC(=S)N/N=C/c2ccc([N+](=O)[O-])s2)cc1,active: 17.8 µM,
COCCn1nnnc1C(c1cccs1)N1CCN(c2cc(C)ccc2C)CC1 (stereo not drawn),"inconclusive: 20.6 µM [inhibitor, partial curve, poor fit]",
COc1ccc(N2CCN(CCCNC(=O)c3cc(Nc4ccccc4OC)nc4ccccc34)CC2)cc1,"inconclusive: 35.5 µM [inhibitor, single point]",
COc1ccccc1NC(=O)C1=C(C)NC(=O)NC1c1ccc(C)s1 (stereo not drawn),"inconclusive: 0.891 µM [inhibitor, full curve, poor fit]",
CN(CC(=O)Nc1ccc(Cl)c(C(F)(F)F)c1)C(=O)c1ccc(OCC2CCCO2)cc1 (stereo not drawn),"inconclusive: 12.6 µM [inhibitor, single point]",
Cc1ccc(Nc2nc(Nc3ccc(C)c(C)c3)nc(N3CCOCC3)n2)cc1C,"inconclusive: 1.41 µM [inhibitor, single point]",
CC(=O)OCn1ncc(N2CCOCC2)c(Br)c1=O,inactive,
O=C(O)C1CCN(C(=O)CSc2nc3ccccc3c(=O)n2-c2ccc(Cl)cc2)CC1,inactive,
O=C(Nc1cccc(-c2cn3cccnc3n2)c1)Nc1ccccc1F,"inconclusive: 6.31 µM [activator, partial curve, poor fit]",
CCOc1ccc(N2C(=O)CC(SC(=NC)Nc3cccc(F)c3)C2=O)cc1 (stereo not drawn),inactive,
O=C(NC1CCCC1)c1ccc2c(=O)n(Cc3ccccc3)c(SCc3ccccc3)nc2c1,inactive,
c1ccc(CCNc2nc3ccccc3n3nnnc23)cc1,inactive,
Oc1ccc(-c2cnc(-c3ccc(O)cc3)nc2)cc1,active: 3.16 µM,
Cc1ccc(Nc2nc(N3CCOCC3)nc(N3CCOCC3)n2)cc1,inactive,
CCc1ccc(CN2CCC(n3nccc3NC(=O)c3ccccc3Cl)CC2)cc1,"inconclusive: 10 µM [inhibitor, partial curve, poor fit]",

SMILES,Potency,"activity change, negative = inhibition"
CCCCSCCCNC(=O)c1cn(C)c2ccc(S(=O)(=O)N3CCCC3)cc2c1=O,"inconclusive: 2.82 µM [activator, full curve, poor fit]",
CC1CC(C)CN(CCCNC(=O)CN2C(=O)c3cccnc3Oc3ccc(Cl)cc32)C1 (stereo not drawn),"inconclusive: 1.12 µM [activator, full curve]",
O=C(c1ccccc1)C1N=NCC1c1ccc(Cl)cc1 (stereo not drawn),inactive,
Cn1cnnc1SCC(=O)Nc1nc(-c2ccccc2)cs1,inactive,
CC(C)CC(=O)NC(NC(=S)Nc1cccc2cccnc12)C(Cl)(Cl)Cl (stereo not drawn),"inconclusive: 20 µM [inhibitor, single point]",
Cc1cc(C)n(-c2ccc(C(=O)Nc3sccc3C(N)=O)cc2)n1,"inconclusive: 1.58 µM [activator, partial curve]",
C/C(CC(=O)NCc1ccco1)=N\NC(=O)COc1ccc(C)cc1,"inconclusive: 15.8 µM [activator, partial curve, poor fit]",
CC1CCN(CCCNC(=O)c2ccc3c(Cl)c4c(nc3c2)CCCC4)CC1,"inconclusive: 35.5 µM [inhibitor, single point]",
CC1(c2ccccc2)CC(C)(C)N(C(=O)c2cc([N+](=O)[O-])cc([N+](=O)[O-])c2)c2ccccc21 (stereo not drawn),"inconclusive: 2.31 µM [inhibitor, partial curve, poor fit]",
N#Cc1c(F)cccc1N1CCC(C#N)CC1,inactive,
Cc1ccc(OCCNC(=O)CNC(=O)c2ccccc2Cl)cc1,inactive,
O=S(=O)(c1ccc2[nH]c3c(c2c1)CCCCC3)N1CCN(c2cccc(Cl)c2)CC1,"inconclusive: 8.91 µM [inhibitor, full curve, poor fit]",
COc1ccccc1NC(=O)N(Cc1ccco1)Cc1cc2ccc(C)c(C)c2[nH]c1=O,"inconclusive: 3.16 µM [inhibitor, full curve, poor fit]",
Cc1ccccc1CNC(=O)c1sc2ncnc(N(C)C3CCCCC3)c2c1C,"inconclusive: 35.5 µM [inhibitor, single point]",
COc1ccc(OC)c(C2C3=C(N=c4s/c(=C\c5cccc(O)c5)c(=O)n42)c2ccccc2CC3)c1 (stereo not drawn),"inconclusive: 20.6 µM [inhibitor, single point]",
N/C(=N\OC(=O)/C=C/c1ccccc1)c1ccccn1,inactive,
CCC1CCCCN1C(=O)c1cc(COc2ccc3ncccc3c2)on1 (stereo not drawn),"inconclusive: 2.82 µM [inhibitor, full curve, poor fit]",
CCOC(=O)c1c(NC(=O)c2ccccc2)sc2c1CCc1ccccc1-2,inactive,
O=C(Nc1ccc(F)c(F)c1)NC1CCCCC1,"inconclusive: 23.1 µM [inhibitor, single point]",
CCc1cccc(C)c1NC(=O)CN1C(=O)C2(SCC(=O)N2c2cc(C)cc(C)c2)c2ccccc21 (stereo not drawn),"inconclusive: 3.98 µM [inhibitor, partial curve, poor fit]",
COCc1nnc(NC(=O)c2cc3ccccc3o2)s1,"inconclusive: 2.82 µM [activator, full curve, poor fit]",
CSc1nnc(CCCCCNC(=O)OC(C)(C)C)o1,"inconclusive: 6.31 µM [inhibitor, single point]",

# An excerpt from the list above, for reference:
SMILES,Potency,"activity change, negative = inhibition"
CCOC(=O)c1c(NC(=O)c2ccccc2)sc2c1CCc1ccccc1-2,inactive,
O=C(Nc1ccc(F)c(F)c1)NC1CCCCC1,"inconclusive: 23.1 µM [inhibitor, single point]",
CCc1cccc(C)c1NC(=O)CN1C(=O)C2(SCC(=O)N2c2cc(C)cc(C)c2)c2ccccc21 (stereo not drawn),"inconclusive: 3.98 µM [inhibitor, partial curve, poor fit]",
